Experimental findings from patent publication US20260048125A1 are described below.

By UniProt entry, the sequences of proteins in these tests, tags left out. Where a name states a change or a piece, a line headed by the entry shows the natural chain unless it says otherwise. Residues count along the entry.
UniProt P20138, residues 18-259: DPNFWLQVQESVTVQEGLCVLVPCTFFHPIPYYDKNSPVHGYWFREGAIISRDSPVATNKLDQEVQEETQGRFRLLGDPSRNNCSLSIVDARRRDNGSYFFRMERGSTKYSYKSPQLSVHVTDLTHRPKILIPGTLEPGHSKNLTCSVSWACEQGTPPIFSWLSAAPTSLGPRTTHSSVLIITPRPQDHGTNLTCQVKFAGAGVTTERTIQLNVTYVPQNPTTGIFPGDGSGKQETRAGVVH
UniProt P01637: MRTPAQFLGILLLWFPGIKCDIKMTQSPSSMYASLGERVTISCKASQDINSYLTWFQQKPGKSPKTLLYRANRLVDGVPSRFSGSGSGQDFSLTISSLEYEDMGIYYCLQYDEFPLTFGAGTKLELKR
UniProt P01647: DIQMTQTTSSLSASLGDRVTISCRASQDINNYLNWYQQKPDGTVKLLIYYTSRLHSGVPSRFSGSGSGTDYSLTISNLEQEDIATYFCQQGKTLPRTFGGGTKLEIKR

This assay concerns the target recombinant CD33 protein pre-labeled with Phycoerythrin (PE) (UniProt P20138). In words: flow cytometry, CAR on Jurkat reporter cells stained with PE-labeled recombinant CD33. On the technique in general: In flow cytometry, cells or beads pass a laser one at a time.

No constants are given. Whether binding was seen depends on the method and setting. Some entries that bind do so weakly or less than the wild type.

As for “anti-CD33 CAR "CAR-7" (from UniProt P01637 21-128)”, the binding entry is “binds”.

With “anti-CD33 CAR "CAR-9" (from UniProt P01647 1-107)”, the binding entry is recorded as “binds”.
